Experimental data as given in paper PMC9909325, “Crystal structure of the phosphorylated Arabidopsis MKK5 reveals activation mechanism of MAPK kinases” (Acta Biochimica et Biophysica Sinica, 2022).
Results are given in words; binding and its absence hold for the method and conditions named. Some entries that bind do so weakly or less than the wild type. Sequences can lack the tags named with a protein.

Sequences of proteins named here, by UniProt entry; tags and fusion partners are left off. A change or cut given only in a name is not applied to a line headed by its entry.
UniProt Q39026: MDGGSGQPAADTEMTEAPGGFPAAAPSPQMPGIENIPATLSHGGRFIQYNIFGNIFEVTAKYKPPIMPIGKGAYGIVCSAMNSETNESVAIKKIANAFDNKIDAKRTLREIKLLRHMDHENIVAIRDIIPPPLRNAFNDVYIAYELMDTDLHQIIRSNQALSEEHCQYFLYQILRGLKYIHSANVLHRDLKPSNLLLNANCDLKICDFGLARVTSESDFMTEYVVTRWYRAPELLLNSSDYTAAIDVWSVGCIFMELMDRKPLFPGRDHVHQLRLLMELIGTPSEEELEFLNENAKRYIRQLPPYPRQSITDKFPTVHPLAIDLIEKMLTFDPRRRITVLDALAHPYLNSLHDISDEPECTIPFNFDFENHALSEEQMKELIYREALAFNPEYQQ
UniProt Q8RXG3: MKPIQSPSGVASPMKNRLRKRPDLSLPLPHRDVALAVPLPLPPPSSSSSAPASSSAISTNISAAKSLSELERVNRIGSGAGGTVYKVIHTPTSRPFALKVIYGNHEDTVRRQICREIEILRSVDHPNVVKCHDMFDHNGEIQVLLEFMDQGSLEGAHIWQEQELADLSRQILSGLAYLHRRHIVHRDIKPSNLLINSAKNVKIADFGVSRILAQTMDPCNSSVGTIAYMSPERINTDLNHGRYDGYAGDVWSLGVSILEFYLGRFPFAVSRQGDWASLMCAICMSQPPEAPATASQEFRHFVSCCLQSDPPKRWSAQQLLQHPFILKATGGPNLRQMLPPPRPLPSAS

Target: AtMPK6 (Arabidopsis thaliana MAP kinase 6) (Arabidopsis thaliana) (UniProt Q39026)
Assay: SEC; Superdex 200 10/300 at 4°C; equal amounts of the two proteins incubated at 4°C for 60 min; 10 mM Tris-HCl pH 8.0, 150 mM NaCl, 2 mM dithiothreitol; 0.5 mL fractions on SDS-PAGE, Coomassie blue; both purified

binding: binds
B1: putative KIM peptide of AtMKK5 with N-terminal His6-SUMO (peptide, UniProt Q8RXG3 14-32)
chain: MKNRLRKRPDLSLPLPHRD
